Test results from patent US5702914, “Use of reporter genes for retinoid receptor screening assays having novel retinoid-associated response elements” (The Salk Institute for Biological Studies).

Key:
[1] = test system: RIP (retinoid-inducible protein); assay: EMSA; conditions: nearly 100-fold induced by retinoic acid in P19 nuclear extract; absent in NT2/D1 extract; protein in an extract; protein details: nuclear extract of retinoic acid-treated P19 cells
[2] = test system: RIP (retinoid-inducible protein); assay: competition with a labelled probe; conditions: mutant does not compete for RIP binding in gel retardation; protein in an extract; protein details: nuclear extract of retinoic acid-treated P19 cells; variant of URE-wt (RIP-binding-site)
[3] = test system: RAP (retinoid activating protein); assay: EMSA; conditions: specific binding; activity absent in CV-1 extract; exact 90 bp range within SEQ ID NO:2 not stated; protein in an extract; protein details: NT2/D1 cell nuclear extract

Q: Does “AGCTACACCCTGACAGGTTACAAATA (double strand) [URE-wt (RIP-binding-site)]” bind [1]?
A: Result: binds

Q: Does “CAGGCAGACACCCTGACAGGTTACAAATGAGCGTGG (double strand) [URE mut]” bind [2]?
A: Result: no binding

Q: Does “GGCGGGCGGAGGAGGCCGAGGTAACCTGGGATCCCGGGCCTGACCTTTTTACCTCGAAGCGCCTCTGGGCTTTCCAAACAAGCCGACAGCGCGCCCGCGGGGGCAGCTATTGTCTCCGGGCCGGTCCCACTGGCAAACCTTTGGTC (double strand) [90 bp RAP-binding-site fragment]” bind [3]?
A: Result: binds

Construct, isoform or probe ends are uncertain for at least one entry. At least one result comes from cells or an extract, where the contact may be indirect. For part of these data: Negatives hold for the conditions tested.
